# Library screen at single concentrations

Source: ChEMBL document CHEMBL3988442, “University of Dundee, Small-Polar-MMV Screening Library” (2021).

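Phenotypic screen: M. tuberculosis growth, glucose 7H9 medium, 3 days; the read-out is not stated. Tested at 500 µM. Higher reads as more growth inhibition (inferred: compounds with an IC50 in retests scored well above the rest). Size under these conditions: about 18,000 compounds, about 1,400 of them at 50% or above in at least one test.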

Each number is a percent effect as filed. The record does not define 0% and 100%; most values in the screen are far below 50% and negative numbers occur (in some assays of this library far below -100). Compounds were drawn at random from those tested, without regard to their results.

| SMILES | percent effect |
|---|---|
| `O=C(Cc1noc2ccccc12)NCC1CCOC1` (centres unmarked) | 16.21 |
| `CC(C)(C)OC(=O)NCCC(=O)NC1=NCCS1` | 42.08 |
| `CN(CCC#N)C(=O)CN1C(=O)c2ccccc2C1=O` | -9.36 |
| `CC(C#N)CNC(=O)Cc1ccccc1O` (centres unmarked) | -0.188 |
| `CCCN(CCC)S(=O)(=O)N1CCC2(CC1)OCCO2` | 58.93 |
| `Cc1nnc(CNC(=O)c2ccc(NC3CC3)nc2)o1` | 15.65 |
| `CCC1CN(C(=O)c2sccc2N)CCN1C(C)C` (centres unmarked) | 13.84 |
| `CSCCC(O)C(=O)NCCc1cnccn1` (centres unmarked) | 4.262 |
| `COC(C)(C)C(=O)Nc1nccc(C)n1` | -6.251 |
| `CCOc1ccc(CSc2nnc[nH]2)cc1` | 64.43 |
| `NC(=O)CNCc1cc(O)c2cccc(Cl)c2n1` | 6.877 |
| `Cc1cc(C(=O)N2CCCC2C(=O)NC2CC2)no1` (centres unmarked) | -5.256 |
| `NC(=O)c1ccsc1NC(=O)CCN1CCCC1` | 71.65 |
| `Cc1ccc(NC(=O)NC2CCN(C)CC2)cc1` | 1.086 |
| `CNc1cc(C(=O)N2CCC[C@@H]2COC)ccn1` | 6.497 |
| `CCN1CCN(Cc2ccc(OC)c(OC)c2)CC1` | -3.201 |
| `CCc1ccsc1CNC(=O)CSc1nc(C)n[nH]1` | 6.801 |
| `NCCC1CCN(c2ccncc2)CC1` | -6.743 |
| `CC(C)NC(=O)N(Cc1cccnc1)C(C)C` | 7.272 |
| `CCN1CCCN(C(=O)c2cc(C3CC3)on2)CC1=O` | 19.62 |
| `CN(Cc1nnc2n1CCC2)C(=O)C1CCCCC1` | 4.45 |
| `Cc1ccc2nc(CCN)oc2c1` | 60.65 |
| `Cc1n[nH]cc1CNC1CCN(C(=O)C(C)C)CC1` | 2.019 |
| `C[C@@H](O)CNCC1=Cc2ccccc2OC1` | 23.02 |
| `Cc1cc(CNC(=O)NCc2ncnn2C)c(C)o1` | -10.19 |
| `CCOCC(=O)NCC(O)c1cccc(C(F)(F)F)c1` (centres unmarked) | 60.06 |
| `CCOC(=O)c1cnc(C(=O)Nc2nncs2)c(Cl)c1` | -13.45 |
| `Cc1csc(CNC(=O)NC(C)Cn2cccn2)n1` (centres unmarked) | -1.653 |
| `NC(=O)NC1CCN(C(=O)Cc2ccc(Br)cc2)CC1` | -6.663 |
| `CN(C)c1cc(CNC(=O)c2ccncc2)ccn1` | 22.68 |
| `Cc1ccc(C(=O)NCc2ccnc(N(C)C)c2)s1` | 56.49 |
| `CCSc1nc2ccccc2c(=O)n1CCCO` | 86.37 |
| `CC(NC(=O)CCc1ccc(O)cc1)c1cnn(C)c1` (centres unmarked) | 1.036 |
| `CC(=O)c1ccc(C(=O)NC2CCCCNC2=O)s1` (centres unmarked) | 4.03 |
| `CN(Cc1nc(C2CCOC2)no1)C1CCNCC1` (centres unmarked) | 8.795 |
| `OCCNCCNCc1cccc(Cl)c1Cl` | 57.71 |
| `CN(CC(N)=O)C(=O)c1ccc(OC2CCC2)cc1Cl` | -2.648 |
| `Cc1c[nH]c(CNC(=O)CCc2cccnc2)n1` | 9.852 |
| `O=C1c2ccccc2CS(=O)(=O)N1Cc1ccccn1` | -7.288 |
| `CCN(C(=O)OC(C)(C)C)[C@H](C)CN` | 6.216 |
| `Cc1cccc(C(=O)N(C)C)n1` | -4.921 |
| `COc1ccc(CCC(=O)NC2CCN(C)CC2)cc1` | -0.212 |
| `COc1ccccc1OC1CN(c2nccc(N)n2)C1` | 17.99 |
| `O=C(CC1C=CCC1)N1CCN(c2ccccn2)CC1` (centres unmarked) | 56.51 |
| `OC(c1ncc[nH]1)C1CCNCC1` (centres unmarked) | 1.271 |
| `N#Cc1ccc(N2CCN(c3ccccn3)CC2)nc1` | 1.774 |
| `CN(C)c1nc(N)nc(CN2CCSCC2CCO)n1` (centres unmarked) | -11.25 |
| `NC(=O)c1ccc(CNC(=O)CC2C=CCC2)cc1` (centres unmarked) | 6.181 |
| `Cn1cnc(Br)c1CO` | 2.09 |
| `CC1CCN(C(CN)C(C)C)CC1` (centres unmarked) | 14.49 |
| `NCc1cnn(-c2cccc(Cl)c2)c1` | 70.61 |
| `Cc1nccc(C(=O)NCC(C)(C)N2CCOCC2)n1` | -2.327 |
| `CC(C)CN1CCN(c2ncccc2F)CC1` | -12.99 |
| `Cc1nc(CN2CCCSCC2)oc1C` | 26.83 |
| `CCOC1CCCN(CCC(N)=O)C1` (centres unmarked) | 28.24 |
| `Cn1nccc1C1COCCN1` (centres unmarked) | -0.239 |
| `CN(C(=O)COCC1CC1)c1nc2ccccc2n1C` | 20.86 |
| `COc1cnc(C(=O)NCc2ccccc2F)cc1O` | 17.12 |
| `Cc1cc(NC(=O)NCCN(C)C)no1` | 7.673 |
| `CSC1(C)C(=O)Nc2c(C#N)cccc21` (centres unmarked) | 9.526 |
| `CCc1noc(CNC)n1` | -3.25 |
| `CCN(CC1CCCCO1)C(=O)c1cc(Cl)c[nH]c1=O` (centres unmarked) | 3.1 |
| `CC[C@H]1COCCN1C(=O)CCn1ccc(=O)[nH]c1=O` | 3.288 |
| `Cn1nccc1CCC(=O)NCC[C@@H]1CCCN1` | -15.7 |
| `CS(=O)(=O)c1ccncc1N` | -19.24 |
| `CCc1nsc(N2CCN(CCC(=O)NC)CC2)n1` | 22.04 |
| `OCCOc1ccc(NC2CCCSC2)cn1` (centres unmarked) | -57.56 |
| `CN(Cc1ccco1)S(=O)(=O)c1cnn(C)c1` | 18.58 |
| `N#Cc1ccc(N2CCOC2=O)nc1` | 0.153 |
| `Cc1noc(C)c1CCC(=O)N1C[C@@H](C)[C@@](C)(O)C1` | 4.322 |
| `CC(C)NC1CCOCC1` | 4.324 |
| `COc1cc(OC)cc(-c2[nH][nH]c(=O)c2CCN)c1` | 43.47 |
| `Cn1c(C(=O)N[C@H]2COC[C@@H]2O)cc2ccccc21` | 18.05 |
| `CNc1cc(C(=O)NCCNc2cccnc2)ccn1` | 15.74 |
| `CN(C)C(=O)c1cc2ccccc2cc1O` | 25.99 |
| `Cn1cc(I)c(CN)n1` | 29.54 |
| `CN(CCN1CCCC1=O)C(=O)C1CCCO1` (centres unmarked) | 3.496 |
| `C=C(C)CNC(=O)Nc1cccc(N2CCNC2=O)c1` | -11.27 |
| `CC1(CNC(=O)CCOc2ccccc2)COC1` | 16.29 |
| `Cc1cc(CS(=O)(=O)Cc2ccc(C(N)=O)cc2)no1` | -8.691 |
| `CC(C)C1CNCCO1` (centres unmarked) | -9.976 |
| `CN(C)S(=O)(=O)c1ccc(-c2csc(N)n2)cc1` | 36.59 |

Once more, the final 7:

| SMILES | percent effect |
|---|---|
| `Cn1cc(I)c(CN)n1` | 29.54 |
| `CN(CCN1CCCC1=O)C(=O)C1CCCO1` (centres unmarked) | 3.496 |
| `C=C(C)CNC(=O)Nc1cccc(N2CCNC2=O)c1` | -11.27 |
| `CC1(CNC(=O)CCOc2ccccc2)COC1` | 16.29 |
| `Cc1cc(CS(=O)(=O)Cc2ccc(C(N)=O)cc2)no1` | -8.691 |
| `CC(C)C1CNCCO1` (centres unmarked) | -9.976 |
| `CN(C)S(=O)(=O)c1ccc(-c2csc(N)n2)cc1` | 36.59 |